Measured data: PubChem BioAssay AID1224830 (NIAID, 2016)
Aim: 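Host factors that control LPS-induced TNF expression in human macrophages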 (primary screen). Cells: human THP-1 monocytic leukaemia cells, TNF dual-luciferase reporter clone, PMA-differentiated to macrophage-like cells. Reagents: siRNA pool against human genes, 50 nM. Timing: LPS for 4 h, given about 3 days after siRNA transfection. Challenge: bacterial LPS (TLR4 ligand), 10 ng/ml. Measurement: 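Ratio of firefly to renilla light, scaled to the plate median and expressed as a robust z-score per replicate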. Scale: TNF reporter robust z-score: higher = stronger TNF reporter response to LPS. Hit rule: 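Each well counts as active if its z-score is over 2.8 or under -1.5; controls are left without a call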.
The deposit covers about 18,000 reagents; this is a random part of them. About 2,900 of them (16%) were called active. 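Calls are made per well; low scores hint the gene aids the LPS response, high scores that it dampens it.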 Repeated entries: four replicate wells of each siRNA pool.

FAM114A1
- TNF reporter robust z-score: -0.11
- outcome: inactive

FAM114A1
- TNF reporter robust z-score: 0.55
- outcome: inactive

FAM114A1
- TNF reporter robust z-score: 0.39
- outcome: inactive

FAM114A1
- TNF reporter robust z-score: 2.07
- outcome: inactive

KLRC1
- TNF reporter robust z-score: 2.26
- outcome: inactive

KLRC1
- TNF reporter robust z-score: 1.24
- outcome: inactive

KLRC1
- TNF reporter robust z-score: 1.65
- outcome: inactive

KLRC1
- TNF reporter robust z-score: 3.9
- outcome: active

HPSE
- TNF reporter robust z-score: -0.49
- outcome: inactive

HPSE
- TNF reporter robust z-score: 0.06
- outcome: inactive

HPSE
- TNF reporter robust z-score: 0.09
- outcome: inactive

HPSE
- TNF reporter robust z-score: 0.67
- outcome: inactive

PPP2R2D
- TNF reporter robust z-score: -0.22
- outcome: inactive

PPP2R2D
- TNF reporter robust z-score: 0.94
- outcome: inactive

PPP2R2D
- TNF reporter robust z-score: 1.63
- outcome: inactive

PPP2R2D
- TNF reporter robust z-score: -0.52
- outcome: inactive

TDRKH
- TNF reporter robust z-score: 0.71
- outcome: inactive

TDRKH
- TNF reporter robust z-score: 0.02
- outcome: inactive

TDRKH
- TNF reporter robust z-score: 1.13
- outcome: inactive

TDRKH
- TNF reporter robust z-score: -0.56
- outcome: inactive
